The structures given here were assigned with low confidence; some may be wrong. Not every entry of the source has a single result; some have several. The list is limited to them. There may be further records. The values listed for one entry appear to be repeats (runs, samples, wells or individuals).
Molecular target: human adrenergic-α2C receptor (Homo sapiens, UniProt P18825)
Test: Radioligand binding experiment for α2C-adrenoceptor ([3H]-raulwolscine competition, CHO cell membranes)
Settings: [3H]raulwolscine 1 nM, membranes of CHO cells transfected with human α2C receptor
Description: The interaction of the compounds of Formula (I) with α2C-adrenoceptor receptors was assessed in in vitro radioligand binding experiments. In general, a low concentration of a radioligand with a high binding affinity for a particular receptor or transporter is incubated with a sample of a tissue preparation enriched in a particular receptor or transporter or with a preparation of cells expressing cloned human receptors in a buffered medium. During the incubation, the radioligand binds to the receptor or transporter. When equilibrium of binding is reached, the receptor bound radioactivity is separated from the non-bound radioactivity, and the receptor- or transporter-bound activity is counted. The interaction of the test compounds with the receptor is assessed in competition binding experiments. […]
Membranes were thawed and re-homogenized in incubation buffer (glycylglycine 25 mM, pH 8.0). […] Filter-bound radioactivity was determined by scintillation counting in a Topcount (Packard, Meriden, CT) and results were expressed as counts per minute (cpm). Non-specific binding was determined in the presence of 1 μM oxymetazoline for hα2A- and hα2B receptors and 1 μM spiroxatrine for hα2C receptors.
Data from assays in the presence of compound were calculated as a percentage of total binding measured in the absence of test compound. […]

Chains of the proteins cited; added tags and fusions are not shown.
UniProt P18825, whole entry: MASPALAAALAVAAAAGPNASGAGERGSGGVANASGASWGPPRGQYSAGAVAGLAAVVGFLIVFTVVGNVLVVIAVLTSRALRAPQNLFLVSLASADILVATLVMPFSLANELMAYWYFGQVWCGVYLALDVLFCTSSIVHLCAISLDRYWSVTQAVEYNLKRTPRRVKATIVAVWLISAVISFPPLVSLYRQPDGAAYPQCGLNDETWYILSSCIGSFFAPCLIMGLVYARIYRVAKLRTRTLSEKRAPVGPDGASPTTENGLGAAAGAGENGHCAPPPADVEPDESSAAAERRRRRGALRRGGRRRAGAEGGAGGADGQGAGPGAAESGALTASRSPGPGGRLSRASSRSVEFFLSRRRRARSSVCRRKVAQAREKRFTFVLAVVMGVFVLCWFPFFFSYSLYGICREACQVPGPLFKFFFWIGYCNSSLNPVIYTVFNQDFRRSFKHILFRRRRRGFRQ

pIC50 α2C: 8.6 and 8.1
Structure (SMILES): O=c1n(CC2CCN(CCOc3ccccc3)CC2)cnn1CCN1CCN(Cc2ccc3ccccc3c2)CC1

Source: patent US20100029620A1, “SUBSTITUTED TRIAZOLINE, TETRAZOLONE AND IMIDAZOLONE DERIVATIVES FOR USE AS A MEDICINE” (JANSSEN PHARMACEUTICA N.V., priority 2004, published 2010)
